In paper PMC11145868, “Protein target similarity is positive predictor of in vitro antipathogenic activity: a drug repurposing strategy for Plasmodium falciparum” (Journal of Cheminformatics, 2024):

System: P. falciparum Dd2-HLH
Assay: microbe, parasite or virus in culture
Format: cell-based
Details: Plasmodium falciparum, DD2, 72 h, read-out: Blood stage 72h EC50

SMILES: CO[C@@H]1[C@H](N(C)C(=O)c2ccccc2)C[C@H]2O[C@]1(C)n1c3ccccc3c3c4c(c5c6ccccc6n2c5c31)C(=O)NC4 [Midostaurin]
- EC50: 417 nM
